In patent US20040138133A1 one finds binding data, which are given here for one molecule.

The target of experiment [1] is Nck (adapter protein) from detergent extracts of human endothelial cells (human) (UniProt P16333). The experiment is described as follows: peptide-agarose pull-down from human endothelial cell lysate, anti-Nck western blot. A general note: A western blot detects proteins with antibodies after separation by electrophoresis.
The target is the same in experiment [2]. Kind of experiment: peptide-agarose pull-down from human endothelial cell lysate, anti-Nck western blot (summary of Example 1).

These are yes or no findings as the source states them, for the method shown. Binding seen in cells or lysates may run through a third protein. Some entries that bind do so weakly or less than the wild type.

B1: PRO peptide (13 residues from the first proline-rich domain of PAK1) lacking the Tat sequence, with a cysteine for coupling to agarose (peptide)
peptide: KPPAPPMRNTSTMC
modifications: terminal cysteine coupled to activated thiol-Sepharose (agarose) beads
Regarding B1, the binding entry in experiment [1] and in experiment [2] was “binds” throughout.
